In article doi:10.1101/2025.10.20.683344 one finds binding data, which are given here for three molecules.

Assay [1] concerns the target OsERS1 (ETHYLENE RESPONSE SENSOR 1), split-luciferase fusions (rice (Oryza sativa)) (UniProt Q53RH0). As to the kind of experiment: split reporter.
Assay [2] deals with OsERS1 (ETHYLENE RESPONSE SENSOR 1), FLAG- and GFP-tagged copies for co-immunoprecipitation (rice (Oryza sativa)) (UniProt Q53RH0). Kind of assay: co-IP.
Assay [3] deals with OsERS1 in membrane fractions of N. benthamiana leaves (rice (Oryza sativa)) (UniProt Q53RH0). As to the kind of experiment: Western blot with and without reductant. (In general: A western blot detects proteins with antibodies after separation by electrophoresis.)

These are yes or no findings as the source states them, for the method shown. For part of these data: Binding seen in cells or lysates may run through a third protein. Some results given as binding are weak or reduced against the parent protein; the word gives no strength. For part of these data: Where a sequence is shown, tags or fusion partners need not be part of it.

B1: OsERS1 (ETHYLENE RESPONSE SENSOR 1), split-luciferase fusions (receptor, UniProt Q53RH0 1-636)
chain: MDGCDCIEPLWPTDELLIKYQYISDFFIALAYFSIPLELIYFVKKSSFFPYRWVLIQFGAFIVLCGATHLINLWTFTTHTKTVAMVMTVAKVSTAVVSCATALMLVHIIPDLLSVKTRELFLKNKAEQLDREMGLIRTQEETGRHVRMLTHEIRSTLDRHTILKTTLVELGGTLGLEECALWMPSRSGSSLQLSHTLRHQITVGSTVSINLPVVNQVFSSNRAIIIPHTSPLARIRPLAGRYVPPEVAAVRVPLLHLSNFQINDWPELSAKSYAIMVLMLPSDSARKWHVHELELVEVVADQVAVALSHAAILEESMRARDLLMEQNVALDLARREAEMAIRARNDFLAVMNHEMRTPMNAIIALSSLLLETELTPEQRLMVETVLKSSNLLATLINDVLDLSKLEDGSLELEIKAFNLHAVFKEVMSFIKPIAAIKRLSVSVMLAPDLPLCAIGDEKRLMQTILNISGNAVKFTKEGHITLVASVVKADSLREFRTPDFHPTASDDNFYLKVQIKDTGCGISPQDLPQVFTKFAQSQPGGNRGYSGSGLGLAICKRFVTLMGGHIWLDSEGTGRGCTVTFVIQLGICDNTNAYQQKLIPLVWPSSGDADFVGPVPNAPNEEKGQASLKSRYQRSI
Turning to B1, the binding result in assay [1] is listed as “binds”.

B2: OsERS1 (ETHYLENE RESPONSE SENSOR 1), FLAG- and GFP-tagged copies for co-immunoprecipitation (receptor, UniProt Q53RH0 1-636)
chain: B1 chain
In the case of B2, the binding entry in assay [2] is reported as “binds”.

B3: OsERS1 in membrane fractions of N. benthamiana leaves (receptor, UniProt Q53RH0 1-636)
chain: B1 chain
As for B3, in assay [3], the binding entry was “binds”.
